Measurements as given in paper PMC3288005.
These are yes or no findings as the source states them, for the method shown. In cells and extracts the contact can be indirect. Some entries that bind do so weakly or less than the wild type. For some assays here: Where a sequence is shown, tags or fusion partners need not be part of it.

Amino acid sequences for entries named in this document (tags omitted).
UniProt Q7Z434: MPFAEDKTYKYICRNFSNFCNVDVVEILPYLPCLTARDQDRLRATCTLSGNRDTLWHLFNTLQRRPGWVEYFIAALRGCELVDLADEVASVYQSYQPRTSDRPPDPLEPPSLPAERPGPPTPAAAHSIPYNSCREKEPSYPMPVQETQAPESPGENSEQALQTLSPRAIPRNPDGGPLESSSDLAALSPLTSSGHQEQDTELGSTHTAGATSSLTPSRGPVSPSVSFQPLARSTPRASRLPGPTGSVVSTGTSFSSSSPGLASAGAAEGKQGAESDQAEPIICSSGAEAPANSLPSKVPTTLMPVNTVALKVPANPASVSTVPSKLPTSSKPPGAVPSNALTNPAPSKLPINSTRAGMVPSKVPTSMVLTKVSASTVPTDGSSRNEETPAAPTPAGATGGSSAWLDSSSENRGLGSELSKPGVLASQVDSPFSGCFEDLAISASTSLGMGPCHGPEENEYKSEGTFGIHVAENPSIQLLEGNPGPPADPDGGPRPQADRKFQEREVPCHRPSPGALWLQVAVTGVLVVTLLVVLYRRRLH

Legend:
[1] = target: T1, RIG-I (retinoic acid inducible gene), endogenous (human (endogenous in A549)) (UniProt O95786); test: co-IP; A549 cells mock-infected or infected with rA2 or rA2ΔNS1 (MOI 1), 24 h after infection; whole cell lysates precipitated with anti-RIG-I antibody; blots with anti-RIG-I, anti-MAVS and anti-NS1
T1 sequence: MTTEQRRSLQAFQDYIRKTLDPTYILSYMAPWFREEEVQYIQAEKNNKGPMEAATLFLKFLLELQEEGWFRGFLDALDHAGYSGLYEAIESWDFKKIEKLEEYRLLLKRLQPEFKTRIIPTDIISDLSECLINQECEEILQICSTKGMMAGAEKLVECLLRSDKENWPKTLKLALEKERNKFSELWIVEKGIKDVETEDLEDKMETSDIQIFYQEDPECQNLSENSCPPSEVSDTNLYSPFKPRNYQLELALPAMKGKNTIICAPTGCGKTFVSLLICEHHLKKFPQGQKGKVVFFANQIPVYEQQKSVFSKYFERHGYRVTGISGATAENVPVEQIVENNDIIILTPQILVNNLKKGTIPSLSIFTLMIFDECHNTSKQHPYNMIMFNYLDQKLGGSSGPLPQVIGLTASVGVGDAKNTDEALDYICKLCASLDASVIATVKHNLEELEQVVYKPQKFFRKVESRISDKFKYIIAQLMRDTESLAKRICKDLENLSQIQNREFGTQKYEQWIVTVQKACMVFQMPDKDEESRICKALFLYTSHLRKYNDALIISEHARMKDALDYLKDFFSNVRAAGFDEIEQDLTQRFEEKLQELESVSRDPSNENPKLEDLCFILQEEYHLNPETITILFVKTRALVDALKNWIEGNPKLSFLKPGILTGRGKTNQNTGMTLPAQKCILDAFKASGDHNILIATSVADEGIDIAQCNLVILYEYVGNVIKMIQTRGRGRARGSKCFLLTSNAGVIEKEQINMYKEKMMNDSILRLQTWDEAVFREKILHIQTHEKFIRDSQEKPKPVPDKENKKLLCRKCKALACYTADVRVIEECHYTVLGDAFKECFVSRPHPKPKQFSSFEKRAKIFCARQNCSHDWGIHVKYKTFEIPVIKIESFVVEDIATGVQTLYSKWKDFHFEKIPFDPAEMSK

[2] = target: Mitochondrial antiviral signaling protein (MAVS), endogenous (human (endogenous in HEp-2 and A549)) (UniProt Q7Z434); test: co-IP; HEp-2 cells mock-infected or infected with rA2, rA2ΔNS1 or rA2ΔNS2 at MOI 1, 24 h p.i.; total cell lysates precipitated with anti-MAVS antibody and protein A-agarose; blots with anti-NS1 antiserum, anti-MAVS and anti-RSV F
[3] = target: Mitochondrial antiviral signaling protein (MAVS), endogenous (human (endogenous in HEp-2 and A549)) (UniProt Q7Z434); test: co-IP; A549 cells transfected with pVAX or pNS1 with 0.2 ng/ml poly(I:C), harvested 12 and 24 h after transfection; extracts precipitated with anti-MAVS; blots with anti-RIG-I and anti-MAVS
[4] = target: MAVS expressed from plasmid pMAVS (Invivogen) (UniProt Q7Z434); test: co-IP; A549 cells co-transfected with constant amounts (6 µg) of pMAVS and pRIG-I and increasing amounts of pNS1 (pVAX to keep total DNA constant), with 0.2 ng/ml poly(I:C); precipitated with anti-MAVS, blotted with anti-RIG-I
[5] = target: Mitochondrial antiviral signaling protein (MAVS), endogenous (human (endogenous in HEp-2 and A549)) (UniProt Q7Z434); test: co-IP; A549 cells transfected with pNS1-Flag or pFlag; total cell extracts precipitated with anti-MAVS antibody; blots with anti-Flag and anti-MAVS

B1: Respiratory syncytial virus nonstructural protein 1 (NS1), expressed from recombinant RSV rA2 or rA2ΔNS2 in infected cells (protein, UniProt P0DOE9 1-139)
chain: MGSNSLSMIKVRLQNLFDNDEVALLKITCYTDKLIHLTNALAKAVIHTIKLNGIVFVHVITSSDICPNNNIVVKSNFTTMPVLQNGGYIWEMMELTHCSQPNGLLDDNCEIKFSKKLSDSTMTNYMNQLSELLGFDLNP
- binding [1]: binds
- binding [2]: binds

B2: RSV NS1 expressed from plasmid pNS1 (pVAX backbone) (protein, UniProt P0DOE9 1-139)
chain: MGSNSLSMIKVRLQNLFDNDEVALLKITCYTDKLIHLTNALAKAVIHTIKLNGIVFVHVITSSDICPNNNIVVKSNFTTMPVLQNGGYIWEMMELTHCSQPNGLLDDNCEIKFSKKLSDSTMTNYMNQLSELLGFDLNP
- binding [3]: binds
- binding [4]: binds

B3: Flag-NS1 (RSV NS1 expressed from plasmid pNS1-Flag) (protein, UniProt P0DOE9 1-139)
chain: MGSNSLSMIKVRLQNLFDNDEVALLKITCYTDKLIHLTNALAKAVIHTIKLNGIVFVHVITSSDICPNNNIVVKSNFTTMPVLQNGGYIWEMMELTHCSQPNGLLDDNCEIKFSKKLSDSTMTNYMNQLSELLGFDLNP
- binding [5]: binds
